# Patent US20030175703
# For part of these data: No signal at the amounts used counts as a negative. For part of these data: Protein sequences can lack the tags named with them.
# Legend:
# [1] = system: coagulation factor Xa (FXa); experiment: inhibition of the protein
# [2] = system: thrombin (F2) (Homo sapiens); experiment: inhibition of the protein; conditions: 2'-F pyrimidines, purified native protein, dose not given here
# [3] = system: coagulation factor VIIa (FVIIa); experiment: inhibition of the protein
# [4] = molecular target: T1, angiopoietin-1 (Ang1*) (Homo sapiens) (UniProt Q15389); experiment: activity in cells; conditions: 2'-F pyrimidines; abrogates Tie2 autophosphorylation in 293 cells with 13 nM Ang1*; purified recombinant protein; protein details: Regeneron Pharmaceuticals
# T1 sequence (looked up, limits assumed): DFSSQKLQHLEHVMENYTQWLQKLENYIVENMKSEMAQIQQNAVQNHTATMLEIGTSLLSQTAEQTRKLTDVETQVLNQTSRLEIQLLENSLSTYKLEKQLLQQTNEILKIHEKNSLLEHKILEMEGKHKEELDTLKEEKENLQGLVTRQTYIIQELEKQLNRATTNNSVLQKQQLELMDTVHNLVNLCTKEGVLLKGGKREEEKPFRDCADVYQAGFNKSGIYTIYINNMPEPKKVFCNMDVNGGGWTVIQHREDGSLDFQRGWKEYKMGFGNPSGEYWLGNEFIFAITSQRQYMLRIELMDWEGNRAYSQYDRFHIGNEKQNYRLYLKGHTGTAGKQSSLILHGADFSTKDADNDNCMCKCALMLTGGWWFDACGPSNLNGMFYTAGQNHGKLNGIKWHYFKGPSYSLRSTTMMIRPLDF
# [5] = system: coagulation factor IXa (FIXa); experiment: inhibition of the protein; conditions: 2'-F pyrimidines; 10 nM RNA inhibits FIXa/FVIIIa activation of FX, 37 C; prolongs aPTT; purified native protein
# angiopoietin-2 (Ang2) = molecular target: T2, angiopoietin-2 (Ang2) (UniProt O15123); experiment: activity in cells; conditions: 2'-F pyrimidines; increases endothelial apoptosis with 15 nM Ang2; purified recombinant protein
# T2 sequence (looked up, limits assumed): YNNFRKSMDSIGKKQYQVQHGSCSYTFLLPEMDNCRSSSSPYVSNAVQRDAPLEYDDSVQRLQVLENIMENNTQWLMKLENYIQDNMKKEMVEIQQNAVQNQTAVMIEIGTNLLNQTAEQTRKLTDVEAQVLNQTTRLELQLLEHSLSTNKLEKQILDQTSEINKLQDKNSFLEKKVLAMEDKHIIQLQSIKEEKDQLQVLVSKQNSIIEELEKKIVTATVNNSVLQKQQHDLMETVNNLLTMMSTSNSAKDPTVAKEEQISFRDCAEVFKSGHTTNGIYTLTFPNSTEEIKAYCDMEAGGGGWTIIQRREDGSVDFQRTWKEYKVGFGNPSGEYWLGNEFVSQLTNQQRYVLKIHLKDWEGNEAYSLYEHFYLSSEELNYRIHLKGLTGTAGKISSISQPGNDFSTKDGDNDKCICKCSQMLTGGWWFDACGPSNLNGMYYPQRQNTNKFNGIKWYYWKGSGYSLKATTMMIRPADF
sequence,measurement,setting,value
GAGAGCCCCAGCGAGAUAAUACUUGGCCCCGCUCUU [11.F7t],functional effect of the aptamer,"[1]; 2'-F pyrimidines, prolongs PT and APTT of human plasma, purified native protein, dose not given here",active
GGGAACAAAGCUGAAGUACAAACCC [TOG 25 short BULGE Us],functional effect of the aptamer,"[2]; platelet activation about 90%, no inhibition, variant of TOG 25 short (TOGGLE-25t)",not active
GGGAACAAAGCUGAAGUACUUACCC [TOG 25 short (TOGGLE-25t)],functional effect of the aptamer,"[2]; platelet activation below 20%, variant of TOG 25 (TOGGLE-25)",active
GGGAGAGAGGAAGAGGGAUGGGAAAAUAGCCCCAGCGAGAUAAUACUUGGCCCCGCUACUACCAUAACCCAGAGGUCGAUAGUACUGGAUCC [RNA 10.14],functional effect of the aptamer,"[1]; 100 nM RNA inhibits FXa/FVa prothrombin activation, 37 C",active
GGGAGAGAGGAAGAGGGAUGGGAAGCUCCAUCCAAGCGACGACACGCUCGUCCCGAAAAGAAUCAUAACCCAGAGGUCGAU [10.15],functional effect of the aptamer,"[3]; 2'-F pyrimidines, prolongs PT of human plasma, not APTT, purified native protein, dose not given here",active
GGGAGAGAGGAAGAGGGAUGGGACUCGAACAUUUCCACUAACCAACCAUACUAAAGCACCGCCAUAACCCAGAGGUCGAUAGUACUGGAUCCCCCC [ANG9-4],functional effect of the aptamer,[4],active
GGGAGAGAGGAAGAGGGAUGGGGACUAUACCGCGUAAUGCUGCCUCCCCAUUCCGGAACGCUCAUAACCCAGAGGUCGAUAGUACUGGAUCCCCCC [RNA 9.3],functional effect of the aptamer,[5],active
GGGAGAGAGGAAGAGGGAUGGGUACAGAGGAGUACAAGUAGCAUGAUCCCCUCGUGUAAAAACAUAACCCAGAGGUCGAUAGUACUGGAUCCCCCC [RNA 16.3],functional effect of the aptamer,"[3]; 2'-NH2 pyrimidines, 1 uM RNA inhibits FVIIa/TF activation of FX, 25 C",active
GGGAGGACGAUGCGGACUAGCCUCAUCAGCUCAUGUGCCCCUCCGCCUGGAUCACCAGACGACUCGCUGAGGAUCCGAGA [ANG11-1],functional effect of the aptamer,angiopoietin-2 (Ang2),active
